{
  "source": "patent US11505815B2",
  "about": "“Compositions and methods related to non-templated enzymatic nucleic acid synthesis” (Nuclera Nucleics Ltd., priority 2017, dated 2022)",
  "note": "At least one compound was matched to its structure with a doubt left.",
  "data": [
    {"test": "Deamination time course in sodium nitrite / sodium acetate pH 5.5, analysed by LC-MS", "type": "physicochemical", "conditions": "sodium nitrite (700 mM), pH 5.5 (1 M), room temperature, LC chromatograms at 260 nm", "values": [
      {"smiles": "[N-]=[N+]=NC1C[C@H](n2ccc(NC(=O)c3ccccc3)nc2=O)O[C@@H]1CO", "note": "(stereo partly drawn) [formula (I)^j, 3′-azido N4-benzoyl 2′-deoxycytidine]", "Extent of deamination (conversion to oxidative deamination product)": "notable absence of peaks"},
      {"smiles": "[N-]=[N+]=Nc1ncnc2c1ncn2[C@H]1CC(O)[C@@H](CO)O1", "note": "(stereo partly drawn) [formula (I)^b, N6-azido 2′-deoxyadenosine]", "Extent of deamination (conversion to oxidative deamination product)": "notable absence of peaks"},
      {"smiles": "[N-]=[N+]=Nc1ccn([C@H]2CC(O)[C@@H](CO)O2)c(=O)n1", "note": "(stereo partly drawn) [formula (I)^c, N4-azido 2′-deoxycytidine]", "Extent of deamination (conversion to oxidative deamination product)": "notable absence of peaks corresponding to dC (reduction product) or dU (deamination product)"},
      {"smiles": "OC[C@H]1O[C@@H](n2cnc3c(NCc4ccccc4)ncnc32)C[C@@H]1O", "note": "[formula (I)^f, N6-benzyl 2′-deoxyadenosine]", "Extent of deamination (conversion to oxidative deamination product)": "notable absence of peaks corresponding to dA (debenzylated product) or deoxyinosine (dI; deamination product)"},
      {"smiles": "COc1ccc(C(=O)Nc2ccn([C@H]3C[C@H](O)[C@@H](CO)O3)c(=O)n2)cc1", "note": "[formula (I)^g, N4-anisoyl 2′-deoxycytidine]", "Extent of deamination (conversion to oxidative deamination product)": "notable reduction in the peaks corresponding to dC (reduction product) or dU (deamination product)"},
      {"smiles": "CC(=O)Nc1ccn([C@H]2C[C@H](O)[C@@H](CO)O2)c(=O)n1", "note": "[formula (I)^e, N4-acetyl 2′-deoxycytidine]", "Extent of deamination (conversion to oxidative deamination product)": "notable reduction in the peaks corresponding to dC (reduction product) or dU (deamination product)"}
    ]}
  ]
}
